Results from article PMC6368580.

Chains of the proteins cited; added tags and fusions are not shown. Lines headed by an entry give the natural chain unless they say otherwise; changes in a name come on top.
UniProt Q96RK0: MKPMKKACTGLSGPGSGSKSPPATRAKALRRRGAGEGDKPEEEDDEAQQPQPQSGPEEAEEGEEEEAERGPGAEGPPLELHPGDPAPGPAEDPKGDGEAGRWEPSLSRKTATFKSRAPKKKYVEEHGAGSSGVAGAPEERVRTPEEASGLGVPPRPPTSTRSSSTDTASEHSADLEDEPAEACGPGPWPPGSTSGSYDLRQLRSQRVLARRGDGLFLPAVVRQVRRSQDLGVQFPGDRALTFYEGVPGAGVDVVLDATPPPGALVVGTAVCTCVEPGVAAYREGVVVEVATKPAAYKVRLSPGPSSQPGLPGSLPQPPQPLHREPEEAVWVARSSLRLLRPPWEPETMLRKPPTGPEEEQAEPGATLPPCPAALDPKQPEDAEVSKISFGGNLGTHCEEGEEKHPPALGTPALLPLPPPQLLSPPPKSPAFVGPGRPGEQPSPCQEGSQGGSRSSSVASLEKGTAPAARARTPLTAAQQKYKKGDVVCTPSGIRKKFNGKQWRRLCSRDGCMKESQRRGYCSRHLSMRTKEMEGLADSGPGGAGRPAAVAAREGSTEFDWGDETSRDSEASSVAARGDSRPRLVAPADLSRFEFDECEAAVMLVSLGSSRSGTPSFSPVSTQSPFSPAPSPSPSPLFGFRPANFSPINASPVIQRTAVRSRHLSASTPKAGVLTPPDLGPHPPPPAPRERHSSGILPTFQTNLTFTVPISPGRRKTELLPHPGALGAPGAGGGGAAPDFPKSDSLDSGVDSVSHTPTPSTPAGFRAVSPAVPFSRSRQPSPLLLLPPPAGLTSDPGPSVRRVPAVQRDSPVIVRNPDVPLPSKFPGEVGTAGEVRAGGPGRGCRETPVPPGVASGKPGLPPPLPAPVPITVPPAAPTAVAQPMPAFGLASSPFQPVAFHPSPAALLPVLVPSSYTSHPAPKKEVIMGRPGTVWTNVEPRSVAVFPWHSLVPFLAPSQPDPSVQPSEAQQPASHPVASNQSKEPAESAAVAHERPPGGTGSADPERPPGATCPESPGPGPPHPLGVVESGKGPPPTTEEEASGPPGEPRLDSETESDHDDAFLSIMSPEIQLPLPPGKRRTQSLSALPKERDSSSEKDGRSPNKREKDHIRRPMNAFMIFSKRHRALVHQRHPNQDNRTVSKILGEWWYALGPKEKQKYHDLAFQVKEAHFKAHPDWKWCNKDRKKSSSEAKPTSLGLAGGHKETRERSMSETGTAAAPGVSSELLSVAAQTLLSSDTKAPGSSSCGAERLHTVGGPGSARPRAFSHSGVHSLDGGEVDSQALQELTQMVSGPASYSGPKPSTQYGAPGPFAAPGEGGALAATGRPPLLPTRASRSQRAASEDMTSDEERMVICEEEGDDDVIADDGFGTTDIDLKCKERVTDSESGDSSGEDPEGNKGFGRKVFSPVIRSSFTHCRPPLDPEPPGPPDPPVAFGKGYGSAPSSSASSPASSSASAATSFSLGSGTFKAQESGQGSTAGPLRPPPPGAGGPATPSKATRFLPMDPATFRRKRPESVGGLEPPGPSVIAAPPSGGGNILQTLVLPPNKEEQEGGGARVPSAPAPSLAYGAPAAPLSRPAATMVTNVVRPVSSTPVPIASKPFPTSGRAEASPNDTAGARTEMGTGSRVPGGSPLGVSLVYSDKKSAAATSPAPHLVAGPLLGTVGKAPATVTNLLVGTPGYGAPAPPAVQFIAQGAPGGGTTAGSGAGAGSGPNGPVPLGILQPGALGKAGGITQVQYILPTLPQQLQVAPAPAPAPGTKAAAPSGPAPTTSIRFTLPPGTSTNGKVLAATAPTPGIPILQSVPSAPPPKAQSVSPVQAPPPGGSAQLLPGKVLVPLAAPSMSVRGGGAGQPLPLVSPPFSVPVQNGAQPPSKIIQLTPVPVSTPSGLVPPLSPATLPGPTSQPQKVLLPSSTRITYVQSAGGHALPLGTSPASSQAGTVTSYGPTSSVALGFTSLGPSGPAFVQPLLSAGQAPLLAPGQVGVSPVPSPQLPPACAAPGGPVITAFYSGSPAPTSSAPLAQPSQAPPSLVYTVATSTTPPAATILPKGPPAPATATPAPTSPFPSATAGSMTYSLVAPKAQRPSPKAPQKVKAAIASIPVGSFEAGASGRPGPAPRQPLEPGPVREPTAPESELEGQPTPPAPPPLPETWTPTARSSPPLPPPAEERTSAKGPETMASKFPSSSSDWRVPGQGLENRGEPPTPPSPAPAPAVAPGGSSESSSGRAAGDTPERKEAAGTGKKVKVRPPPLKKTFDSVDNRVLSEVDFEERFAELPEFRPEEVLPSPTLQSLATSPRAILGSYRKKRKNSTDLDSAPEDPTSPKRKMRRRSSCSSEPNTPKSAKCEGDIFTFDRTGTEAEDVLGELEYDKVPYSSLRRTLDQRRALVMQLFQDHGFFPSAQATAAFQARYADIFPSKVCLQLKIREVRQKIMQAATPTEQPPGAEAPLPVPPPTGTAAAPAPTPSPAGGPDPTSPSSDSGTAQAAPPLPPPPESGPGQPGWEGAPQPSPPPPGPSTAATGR

Molecular target: HA-CIC(ΔEBI), CIC with the ERK-binding interface deleted (UniProt Q96RK0)
Test: co-IP; U87 cells transfected with indicated plasmids, IP with anti-HA antibody; EBC lysis buffer, NETN washes

B1: PJA1 in transfected U87 cells (enzyme, UniProt Q8NG27 1-643)
chain: MGQESSKPVWPNPTGGYQSNTGRRYGRRHAYVSFRPPTSQRERIASQRKTNSEVPMHRSAPSQTTKRSRSPFSTTRRSWDDSESSGTNLNIDNEDYSRYPPREYRASGSRRGMAYGHIDSYGADDSEEEGAGPVERPPVRGKTGKFKDDKLYDPEKGARSLAGPPPHFSSFSRDVREERDKLDPVPAARCSASRADFLPQSSVASQSSSEGKLATKGDSSERERREQNLPARPSRAPVSICGGGENTSKSAEEPVVRPKIRNLASPNCVKPKIFFDTDDDDDMPHSTSRWRDTANDNEGHSDGLARRGRGESSSGYPEPKYPEDKREARSDQVKPEKVPRRRRTMADPDFWTHSDDYYKYCDEDSDSDKEWIAALRRKYRSREQTLSSSGESWETLPGKEEREPPQAKVSASTGTSPGPGASASAGAGAGASAGSNGSNYLEEVREPSLQEEQASLEEGEIPWLQYHENDSSSEGDNDSGHELMQPGVFMLDGNNNLEDDSSVSEDLEVDWSLFDGFADGLGVAEAISYVDPQFLTYMALEERLAQAMETALAHLESLAVDVEVANPPASKESIDALPEILVTEDHGAVGQEMCCPICCSEYVKGEVATELPCHHYFHKPCVSIWLQKSGTCPVCRCMFPPPL
  binding: no binding

These are yes or no findings as the source states them, for the method shown. In cells and extracts the contact can be indirect.
